# The list shows a part of the results. Shown are side measurements of this screen, not its main read-out; they come without a call. The list favours compounds with an active or inconclusive main result. The note in brackets gives the kind of curve behind each potency; many fits are weak.
# Experiment: qHTS Assay to Find Inhibitors of Chronic Active B-Cell Receptor Signaling
# Settings: ABC-DLBCL IkBa-CBG/CBR reporter, luminescence ratio (green luciferase fused to IkBa over red control in TMD8 lymphoma cells), 4 h
# In short: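 Concentration-response series (up to 46 uM) were applied to TMD8 dual-reporter cells for 4 h at 37C with doxycycline. Green/red ratio, after filter-overlap correction, defined %Activity; red signal alone was normalised to basal cells and zero luminescence.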
# [1] = measured here: CBR red luminescence, cell number
# [2] = measured here: IkBa-CBG green luminescence
SMILES,AC50 [1],AC50 [2]
CNC(=S)N(CCc1ccc(OC)c(OC)c1)C1CC(=O)N(c2ccccc2)C1=O (stereo not given),"35.5 µM [falling, single point]",
CCCN(Cc1cc2cc(C)ccc2[nH]c1=O)C(=O)c1cccc([N+](=O)[O-])c1,"5.62 µM [rising, single point]",
CCCC(CCC)C(=O)NCCN1CCOCC1,"2.59 µM [rising, single point]","2.91 µM [rising, partial curve, poor fit]"
Cc1ccc(C(=O)N2CCN(CCNC(=O)C(=O)Nc3ccc(Cl)cc3)CC2)cc1,"0.398 µM [falling, full curve]",
CCOc1ccc(NC(=O)C2CCCN(C(=O)Nc3ccccc3)C2)cc1 (stereo not given),"11.6 µM [rising, partial curve]",
COc1ccc(N2C(=O)CSC23C(=O)N2c4c(cccc43)C(C)=CC2(C)C)cc1 (stereo not given),"18.4 µM [falling, partial curve, poor fit]",
CC(C)(C)c1nnc(N/N=C/c2ccc(O)cc2)n(N)c1=O,"29.1 µM [rising, single point]",
COc1ccccc1NC(=O)Cc1csc(NC(=S)Nc2ccccc2)n1,"1.26 µM [rising, partial curve, poor fit]",
O=C(CN(c1ccc(F)cc1)S(=O)(=O)c1ccc2c(c1)OCCO2)NCc1ccncc1,"35.5 µM [falling, single point]",
COc1ccccc1/C=C1\SC(=S)N(CCC(=O)Nc2ccc(C(=O)O)c(O)c2)C1=O,"10 µM [falling, single point]",
Cc1cccc(OCCNC(=O)c2ccc(Cl)c(S(=O)(=O)NCc3cccnc3)c2)c1,,"16.4 µM [falling, single point]"
Cc1cc(C)cc(N(C(=O)Cn2nnc3ccccc32)C(C(=O)NCc2ccco2)c2ccncc2)c1 (stereo not given),,"29.1 µM [rising, partial curve, poor fit]"
O=C(COC(=O)C1CCN(c2ccc(C(F)(F)F)cn2)CC1)NC1CCCCC1,"20.6 µM [rising, partial curve, poor fit]",
O=C(Nc1nc2c(F)cccc2s1)c1ccc([N+](=O)[O-])o1,"0.224 µM [falling, full curve]",
Clc1ccc(CSc2ncccn2)cc1,"25.9 µM [rising, single point]",
C#CCOCCOCCOCCNc1nc(N2CCN(C(=O)CCCCCCCCCCNC(=O)[C@H]([C@@H](C)CC)n3cc(CCCCCN)nn3)CC2)nc(N2CCN(C(=O)CCCCCCCCCCNC(=O)[C@@H]([C@H](C)O)n3cc(C)nn3)CC2)n1,"29.1 µM [falling, single point]",
CC(C)COC(=O)n1c(SCC(=O)N(C)C)nc2ccccc21,"0.794 µM [falling, full curve, poor fit]",
COc1ccc(C(=O)Nc2ccc3cn[nH]c3c2)c(OC)c1,"11.2 µM [falling, partial curve, poor fit]",
O=C(N/N=C/c1ccccc1C(F)(F)F)c1ccc(O)cc1,"7.94 µM [falling, partial curve]",
CCCCOc1ccc(C2C(C(=O)c3ccc(C)o3)=C(O)C(=O)N2CC2CCCO2)cc1 (stereo not given),"0.651 µM [rising, partial curve, poor fit]",
CCc1ccc2[nH]c(O)c(N=NC3=NC(=O)CS3)c2c1,"5.62 µM [falling, single point]",

SMILES,AC50 [1],AC50 [2]
COc1ccc(CN(CC(=O)NCC2CCCO2)C(=O)CCC(=O)Nc2cc(C)on2)cc1 (stereo not given),"9.2 µM [rising, partial curve, poor fit]",
CCC1(C(=O)c2ccccc2)C(c2ccc([N+](=O)[O-])cc2)C1(C(=O)OC)C(=O)OC (stereo not given),"23.1 µM [falling, partial curve, poor fit]",
Cc1ccccc1/C=N/NC(=O)CSc1nc2ccccc2o1,"0.92 µM [rising, full curve, poor fit]",
Cn1nccc1/C=C(/C#N)S(=O)(=O)c1ccccc1,"29.1 µM [falling, single point]",
O=C(c1cccc([N+](=O)[O-])c1)c1cc2ccccc2o1,"4.11 µM [rising, partial curve, poor fit]",
Fc1ccc2[nH]c3c(N4CCSCC4)ncnc3c2c1,"0.82 µM [falling, partial curve, poor fit]",
O=C(Nc1cccc([N+](=O)[O-])c1)c1cc2ccccc2cc1O,"7.94 µM [falling, partial curve, poor fit]",
CNC[C@H](CC1CCCCC1)NC[C@H](CO)NCCc1cccc(C(F)(F)F)c1,"25.1 µM [falling, single point]",
CCOC(=O)C(NC(=O)c1ccc(F)cc1)(Nc1sc2c(c1C(N)=O)CCC2)C(F)(F)F (stereo not given),"14.6 µM [rising, partial curve, poor fit]",
Cc1ccc(NC(=O)c2cc(C)no2)cc1,"3.55 µM [rising, single point]",
CC(C)(C)c1ccc(C(=O)NCCNC(=O)c2ccco2)cc1,"7.08 µM [rising, partial curve, poor fit]",
O=C(OCc1ccccc1Cl)c1cccnc1Cl,"6.51 µM [rising, full curve]",
CSc1ccc(CNc2ccc(C)c(C)c2)cc1,"17.8 µM [rising, partial curve, poor fit]",
Clc1ccc2nc(-c3ccc(Cl)nc3)[nH]c2c1,"11.2 µM [falling, single point]",
O=C(c1cnn(-c2ccccc2)c1)c1cc(Br)ccc1O,"4.61 µM [rising, full curve, poor fit]",
O=C(Nc1ccccc1O)C(c1ccccc1)c1ccccc1,"35.5 µM [falling, single point]",
Cc1sc2ncnc(N3CCC(C(=O)NNC(=O)COc4cccc(C(F)(F)F)c4)CC3)c2c1C,"32.6 µM [falling, partial curve, poor fit]",
CCSc1nsc(SCC)c1C(N)=O,"12.6 µM [rising, single point]",
Cc1cc(C)nc(N(C#N)Cc2ccccc2Cl)n1,,"28.2 µM [falling, partial curve, poor fit]"
COC(=O)C1=C(C)N(Cc2ccccc2)C(=NCC(C)C)N[C@H]1c1cccc(C(F)(F)F)c1,"16.4 µM [falling, single point]",
CCN1C(=O)C(CC(=O)Nc2ccc(F)cc2)N(Cc2cccs2)C1=S (stereo not given),"35.5 µM [falling, single point]","14.1 µM [rising, single point]"

SMILES,AC50 [1],AC50 [2]
Oc1cccnc1SCc1ccccc1,"3.26 µM [rising, partial curve, poor fit]",
CC(C)(C)SCCNC(=O)/C=C/c1ccccc1,"35.5 µM [falling, single point]",
O=c1c2cc(Br)ccc2[nH]c(=S)n1Cc1ccccc1,"3.98 µM [falling, full curve, poor fit]",
Cc1ccc(SCc2cn3cccnc3n2)cc1,"5.62 µM [falling, single point]",
COc1ccccc1/C=N/NC1=NCCCCC1,"31.6 µM [falling, partial curve, poor fit]",
COc1cccc(C(=O)/C=C/Nc2ccc(S(=O)(=O)Nc3nc(C)cc(C)n3)cc2)c1,"14.6 µM [rising, partial curve]",
O=C(NCCc1ccc(Cl)cc1)C1CCN(Cc2cc3ccccc3n2Cc2ccccc2)CC1,"1.26 µM [falling, full curve, poor fit]",
Cc1cc(C)c(COc2ccc(/C=N/n3c(C)n[nH]c3=S)cc2)c(C)c1,"29.1 µM [falling, single point]",
CCN(C(=O)COc1ncnc2ccccc12)C1CCCCC1,"6.51 µM [rising, single point]",
CCOc1ccc(NC(=O)c2cc([N+](=O)[O-])ccc2N2CCOCC2)cc1,"16.4 µM [falling, single point]",
CCN(CC)C(=O)c1cc(-c2ccc(Br)cc2)on1,"35.5 µM [falling, single point]",
Cc1ccc(F)cc1S(=O)(=O)NCc1ccc(N2CCN(C)CC2)cc1,"7.08 µM [rising, full curve, poor fit]",
COC(=O)CSc1nc2nc(-c3cccs3)cc(C(F)(F)F)c2c(=O)[nH]1,"14.1 µM [rising, single point]",
O=C(CSc1nc2ccccc2nc1N1CCCC1)Nc1ccc(F)cc1,"4.47 µM [falling, full curve, poor fit]",
Cc1ccc(-c2ccc(SCC(=O)NC3CCCC3)nn2)cc1,"35.5 µM [rising, single point]","35.5 µM [falling, single point]"
CN(C)c1ccc(C(=O)OCC(=O)c2cccs2)cc1,"16.4 µM [falling, single point]",
COc1ccc(NC(=O)CSc2n[nH]c(-c3ccncc3)n2)cc1Cl,"4.11 µM [rising, full curve, poor fit]",
Cc1cc2c(cn1)C(CCC#N)(CCC#N)c1ccccc1-2,"8.91 µM [rising, partial curve]",
COc1ccc(/C=N/NC(=O)c2ccc3c(c2)OCCO3)cc1[N+](=O)[O-],"1.84 µM [falling, full curve, poor fit]",
COC(=O)C1=C(C)N(Cc2ccccc2)C(=NCc2cc(OC)c(OC)c(OC)c2)N[C@H]1c1ccccc1,"11.2 µM [falling, partial curve]",

# Record cards, from the list above.
# `Cc1ccc(SCc2cn3cccnc3n2)cc1` in the list: AC50 [1]: 5.62 µM [falling, single point]
# `COc1cccc(C(=O)/C=C/Nc2ccc(S(=O)(=O)Nc3nc(C)cc(C)n3)cc2)c1` in the list: AC50 [1]: 14.6 µM [rising, partial curve]
# `Cc1cc2c(cn1)C(CCC#N)(CCC#N)c1ccccc1-2` in the list: AC50 [1]: 8.91 µM [rising, partial curve]
# `CC(C)(C)SCCNC(=O)/C=C/c1ccccc1` in the list: AC50 [1]: 35.5 µM [falling, single point]
